Where a name gives a salt, the structure may show the parent alone. The list shows a part of the results. The calls rarely recur for the same compound in another form.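 Kinases, fused to nanoluciferase, were expressed in K562 cells; luminescence was measured every 4 h from 2 to 18 h as percent of control (DMSO = 100%, positive control = 0%). A time point is decreased if signal falls significantly (2 sigma). Hits were called by the authors by a rule that is not shown; the count of time points alone does not decide it.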
How the values were obtained:
Experiment in all cases: number of time points (of 5) at which kinase-Nluc abundance scored as decreased, DMSO-normalised (count); higher = more persistent destabilization
Conditions in all cases: K562; 2-18 h
ALK = ALK (UniProt Q9UM73)
ARAF = ARAF (UniProt P10398)
AURKA = AURKA (UniProt O14965)
AURKB = AURKB (UniProt Q96GD4)
AURKC = AURKC (UniProt Q9UQB9)
BLK = BLK (UniProt P51451)
BMX = BMX (UniProt P51813)
BRAF = BRAF (UniProt P15056)
BRAF_V600E = system: BRAF_V600E
BTK = BTK (UniProt Q06187)
CAMK2A = CAMK2A (UniProt Q9UQM7)
CAMK2G = CAMK2G (UniProt Q13555)
CDK10 = CDK10 (UniProt Q15131)
CDK2 = CDK2 (UniProt P24941)
CDK3 = CDK3 (UniProt Q00526)
CDK5 = CDK5 (UniProt Q00535)
CDK6 = CDK6 (UniProt Q00534)
CHEK2 = CHEK2 (UniProt O96017)
CSF1R = CSF1R (UniProt P07333)
CSK = CSK (UniProt P41240)

By UniProt entry, the sequences of proteins in these tests, tags left out. Where a name states a change or a piece, a line headed by the entry shows the natural chain unless it says otherwise.
UniProt O14965: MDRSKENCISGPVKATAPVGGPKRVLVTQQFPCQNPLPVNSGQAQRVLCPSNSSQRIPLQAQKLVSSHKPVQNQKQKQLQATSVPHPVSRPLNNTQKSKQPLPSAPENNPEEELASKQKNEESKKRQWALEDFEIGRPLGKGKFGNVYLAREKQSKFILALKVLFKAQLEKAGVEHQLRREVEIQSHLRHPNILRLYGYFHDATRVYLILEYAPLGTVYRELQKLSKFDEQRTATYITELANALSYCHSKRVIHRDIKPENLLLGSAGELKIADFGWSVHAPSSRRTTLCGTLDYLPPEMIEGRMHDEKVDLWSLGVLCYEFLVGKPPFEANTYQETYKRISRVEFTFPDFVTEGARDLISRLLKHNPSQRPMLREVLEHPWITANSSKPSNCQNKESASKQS
UniProt Q96GD4, whole entry: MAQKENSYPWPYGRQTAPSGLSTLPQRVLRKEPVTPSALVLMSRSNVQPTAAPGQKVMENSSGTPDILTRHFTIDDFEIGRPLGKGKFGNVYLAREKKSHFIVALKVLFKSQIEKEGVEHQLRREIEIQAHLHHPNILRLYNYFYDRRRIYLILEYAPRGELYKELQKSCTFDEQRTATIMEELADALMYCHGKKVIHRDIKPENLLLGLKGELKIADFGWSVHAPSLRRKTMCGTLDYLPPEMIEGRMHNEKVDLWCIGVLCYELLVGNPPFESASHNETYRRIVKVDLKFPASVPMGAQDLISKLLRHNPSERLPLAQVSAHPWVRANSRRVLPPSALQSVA
UniProt P51451: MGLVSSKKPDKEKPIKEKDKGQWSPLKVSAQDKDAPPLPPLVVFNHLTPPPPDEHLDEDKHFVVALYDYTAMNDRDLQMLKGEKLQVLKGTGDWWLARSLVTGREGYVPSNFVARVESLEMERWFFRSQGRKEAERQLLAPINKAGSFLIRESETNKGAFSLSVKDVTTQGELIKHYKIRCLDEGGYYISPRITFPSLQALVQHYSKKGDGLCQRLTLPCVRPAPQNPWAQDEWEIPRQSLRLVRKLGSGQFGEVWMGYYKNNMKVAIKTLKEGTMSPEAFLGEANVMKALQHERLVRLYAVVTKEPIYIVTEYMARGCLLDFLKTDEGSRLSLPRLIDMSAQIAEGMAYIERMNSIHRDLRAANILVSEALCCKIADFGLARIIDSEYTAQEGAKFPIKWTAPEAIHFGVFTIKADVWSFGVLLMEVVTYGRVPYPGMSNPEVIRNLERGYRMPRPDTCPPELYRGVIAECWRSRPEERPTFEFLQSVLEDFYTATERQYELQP
UniProt P15056, whole entry, looked up: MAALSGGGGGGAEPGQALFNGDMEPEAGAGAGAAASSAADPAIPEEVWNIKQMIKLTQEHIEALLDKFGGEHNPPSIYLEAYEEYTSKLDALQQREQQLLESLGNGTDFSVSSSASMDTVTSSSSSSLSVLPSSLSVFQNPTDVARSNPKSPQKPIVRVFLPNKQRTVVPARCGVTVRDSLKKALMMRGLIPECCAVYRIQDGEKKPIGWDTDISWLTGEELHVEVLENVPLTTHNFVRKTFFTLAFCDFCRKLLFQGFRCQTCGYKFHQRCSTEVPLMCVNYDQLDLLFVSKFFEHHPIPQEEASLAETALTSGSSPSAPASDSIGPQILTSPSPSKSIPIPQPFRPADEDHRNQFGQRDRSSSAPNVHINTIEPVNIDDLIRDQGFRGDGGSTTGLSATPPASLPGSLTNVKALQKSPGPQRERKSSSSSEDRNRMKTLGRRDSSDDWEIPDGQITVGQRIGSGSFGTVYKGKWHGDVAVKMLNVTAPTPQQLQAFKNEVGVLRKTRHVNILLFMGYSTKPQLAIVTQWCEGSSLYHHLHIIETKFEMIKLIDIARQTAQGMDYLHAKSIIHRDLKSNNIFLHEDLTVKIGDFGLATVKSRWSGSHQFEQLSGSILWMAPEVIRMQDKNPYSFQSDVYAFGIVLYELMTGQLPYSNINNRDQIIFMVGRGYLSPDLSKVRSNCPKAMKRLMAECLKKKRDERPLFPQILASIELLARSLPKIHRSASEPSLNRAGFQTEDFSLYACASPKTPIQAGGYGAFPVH
UniProt Q06187: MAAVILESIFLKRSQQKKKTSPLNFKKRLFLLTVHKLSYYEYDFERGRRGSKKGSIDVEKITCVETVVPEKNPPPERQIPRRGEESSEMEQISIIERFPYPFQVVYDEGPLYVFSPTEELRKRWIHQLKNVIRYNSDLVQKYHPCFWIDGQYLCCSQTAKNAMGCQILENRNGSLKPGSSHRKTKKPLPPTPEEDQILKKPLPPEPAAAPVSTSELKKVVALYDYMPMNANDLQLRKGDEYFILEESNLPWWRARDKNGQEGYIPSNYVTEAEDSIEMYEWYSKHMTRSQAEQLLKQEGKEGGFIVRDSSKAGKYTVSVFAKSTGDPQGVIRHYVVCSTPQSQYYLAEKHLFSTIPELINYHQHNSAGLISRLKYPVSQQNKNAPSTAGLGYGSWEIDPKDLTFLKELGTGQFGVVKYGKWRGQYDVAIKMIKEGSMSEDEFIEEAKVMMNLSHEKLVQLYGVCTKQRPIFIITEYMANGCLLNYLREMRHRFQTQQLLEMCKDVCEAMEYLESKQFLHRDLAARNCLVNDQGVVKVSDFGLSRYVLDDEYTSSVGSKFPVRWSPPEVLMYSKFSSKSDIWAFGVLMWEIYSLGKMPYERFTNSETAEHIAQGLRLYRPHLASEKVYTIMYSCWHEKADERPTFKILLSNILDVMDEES
UniProt Q9UQM7, whole entry: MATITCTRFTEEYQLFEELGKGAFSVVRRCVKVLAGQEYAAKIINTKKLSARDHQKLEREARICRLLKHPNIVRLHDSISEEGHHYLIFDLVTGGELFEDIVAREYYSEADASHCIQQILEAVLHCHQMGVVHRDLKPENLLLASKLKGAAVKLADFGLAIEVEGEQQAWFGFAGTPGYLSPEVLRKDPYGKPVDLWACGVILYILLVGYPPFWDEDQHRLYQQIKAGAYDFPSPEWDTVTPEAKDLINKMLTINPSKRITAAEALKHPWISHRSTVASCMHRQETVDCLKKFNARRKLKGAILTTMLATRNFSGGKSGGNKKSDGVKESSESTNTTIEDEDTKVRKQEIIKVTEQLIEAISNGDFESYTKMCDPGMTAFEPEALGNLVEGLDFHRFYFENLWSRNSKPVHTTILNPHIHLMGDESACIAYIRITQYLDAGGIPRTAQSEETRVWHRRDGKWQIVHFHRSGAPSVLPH
UniProt Q15131: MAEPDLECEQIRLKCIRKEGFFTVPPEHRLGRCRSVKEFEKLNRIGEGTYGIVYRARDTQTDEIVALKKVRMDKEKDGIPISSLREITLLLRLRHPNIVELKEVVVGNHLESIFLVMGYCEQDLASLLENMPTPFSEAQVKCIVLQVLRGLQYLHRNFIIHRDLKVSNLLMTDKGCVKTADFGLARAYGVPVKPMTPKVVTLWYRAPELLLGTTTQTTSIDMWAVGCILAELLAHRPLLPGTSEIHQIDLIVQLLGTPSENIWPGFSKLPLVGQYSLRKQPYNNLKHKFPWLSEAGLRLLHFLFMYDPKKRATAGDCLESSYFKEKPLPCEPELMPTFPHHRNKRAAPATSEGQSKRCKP
UniProt Q00526: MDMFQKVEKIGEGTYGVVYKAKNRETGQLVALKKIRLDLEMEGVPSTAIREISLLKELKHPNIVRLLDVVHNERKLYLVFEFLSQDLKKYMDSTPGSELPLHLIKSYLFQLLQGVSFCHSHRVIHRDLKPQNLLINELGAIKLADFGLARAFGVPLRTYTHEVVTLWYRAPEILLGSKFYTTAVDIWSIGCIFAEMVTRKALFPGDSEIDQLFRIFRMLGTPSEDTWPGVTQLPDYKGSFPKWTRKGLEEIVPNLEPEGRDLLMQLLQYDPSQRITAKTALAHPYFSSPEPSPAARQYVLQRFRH
UniProt Q00535, whole entry, looked up: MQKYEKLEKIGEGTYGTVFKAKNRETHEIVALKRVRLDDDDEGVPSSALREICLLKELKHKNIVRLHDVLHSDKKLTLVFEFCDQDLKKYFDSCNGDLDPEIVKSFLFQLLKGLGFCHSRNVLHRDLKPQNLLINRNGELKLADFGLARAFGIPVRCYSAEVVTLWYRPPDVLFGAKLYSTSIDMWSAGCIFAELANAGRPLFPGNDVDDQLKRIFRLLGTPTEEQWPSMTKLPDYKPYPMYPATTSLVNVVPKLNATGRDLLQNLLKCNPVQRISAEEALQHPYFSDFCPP
UniProt Q00534, whole entry: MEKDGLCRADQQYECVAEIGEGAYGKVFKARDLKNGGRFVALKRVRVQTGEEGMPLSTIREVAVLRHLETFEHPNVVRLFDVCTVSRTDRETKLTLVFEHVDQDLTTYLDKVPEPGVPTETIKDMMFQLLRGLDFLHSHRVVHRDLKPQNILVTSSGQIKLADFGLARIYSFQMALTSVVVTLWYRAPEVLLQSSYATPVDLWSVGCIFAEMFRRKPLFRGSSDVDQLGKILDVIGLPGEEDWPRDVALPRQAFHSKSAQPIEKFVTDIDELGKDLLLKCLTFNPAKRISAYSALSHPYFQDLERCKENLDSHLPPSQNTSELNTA
UniProt O96017, whole entry: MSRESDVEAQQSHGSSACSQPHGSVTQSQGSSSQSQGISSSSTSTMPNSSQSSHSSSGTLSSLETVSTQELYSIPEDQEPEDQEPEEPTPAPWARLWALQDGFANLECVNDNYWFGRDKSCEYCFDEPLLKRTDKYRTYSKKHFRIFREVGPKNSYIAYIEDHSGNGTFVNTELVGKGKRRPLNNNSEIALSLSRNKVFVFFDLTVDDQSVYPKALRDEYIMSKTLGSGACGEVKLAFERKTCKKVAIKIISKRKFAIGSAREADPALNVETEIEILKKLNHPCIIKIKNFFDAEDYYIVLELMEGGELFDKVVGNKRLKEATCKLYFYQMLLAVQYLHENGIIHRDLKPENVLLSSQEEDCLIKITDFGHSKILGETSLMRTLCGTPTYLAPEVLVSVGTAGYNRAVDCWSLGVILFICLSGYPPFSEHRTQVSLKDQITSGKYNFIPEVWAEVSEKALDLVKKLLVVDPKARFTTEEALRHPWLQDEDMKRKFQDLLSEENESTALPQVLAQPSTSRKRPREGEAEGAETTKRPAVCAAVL
UniProt P07333, whole entry: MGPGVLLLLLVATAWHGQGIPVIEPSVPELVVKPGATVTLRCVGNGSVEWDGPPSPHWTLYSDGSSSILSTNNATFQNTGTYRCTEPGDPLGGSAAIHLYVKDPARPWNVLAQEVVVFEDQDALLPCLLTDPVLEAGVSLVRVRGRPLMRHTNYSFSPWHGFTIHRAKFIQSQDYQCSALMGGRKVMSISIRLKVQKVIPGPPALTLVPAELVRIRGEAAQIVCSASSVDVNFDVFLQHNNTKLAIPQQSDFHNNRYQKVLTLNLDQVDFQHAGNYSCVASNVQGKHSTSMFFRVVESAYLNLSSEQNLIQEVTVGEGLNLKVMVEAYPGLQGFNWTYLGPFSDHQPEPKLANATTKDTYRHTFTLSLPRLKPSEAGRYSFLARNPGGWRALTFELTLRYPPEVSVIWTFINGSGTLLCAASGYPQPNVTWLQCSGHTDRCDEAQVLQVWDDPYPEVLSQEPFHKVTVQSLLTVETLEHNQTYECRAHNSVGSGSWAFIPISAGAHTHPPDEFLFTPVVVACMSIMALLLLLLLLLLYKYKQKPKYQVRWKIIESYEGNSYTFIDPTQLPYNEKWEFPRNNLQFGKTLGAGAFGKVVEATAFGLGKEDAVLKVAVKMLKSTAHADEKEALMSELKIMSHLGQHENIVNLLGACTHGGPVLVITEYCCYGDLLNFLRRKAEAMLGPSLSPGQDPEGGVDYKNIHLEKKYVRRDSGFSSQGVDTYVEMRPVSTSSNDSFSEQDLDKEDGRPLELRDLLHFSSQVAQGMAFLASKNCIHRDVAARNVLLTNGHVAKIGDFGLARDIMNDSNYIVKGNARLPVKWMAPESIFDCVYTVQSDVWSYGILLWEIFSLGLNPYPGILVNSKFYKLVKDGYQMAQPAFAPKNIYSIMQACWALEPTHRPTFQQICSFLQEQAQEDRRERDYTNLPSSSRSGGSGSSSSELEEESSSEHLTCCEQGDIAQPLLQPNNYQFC
UniProt P41240: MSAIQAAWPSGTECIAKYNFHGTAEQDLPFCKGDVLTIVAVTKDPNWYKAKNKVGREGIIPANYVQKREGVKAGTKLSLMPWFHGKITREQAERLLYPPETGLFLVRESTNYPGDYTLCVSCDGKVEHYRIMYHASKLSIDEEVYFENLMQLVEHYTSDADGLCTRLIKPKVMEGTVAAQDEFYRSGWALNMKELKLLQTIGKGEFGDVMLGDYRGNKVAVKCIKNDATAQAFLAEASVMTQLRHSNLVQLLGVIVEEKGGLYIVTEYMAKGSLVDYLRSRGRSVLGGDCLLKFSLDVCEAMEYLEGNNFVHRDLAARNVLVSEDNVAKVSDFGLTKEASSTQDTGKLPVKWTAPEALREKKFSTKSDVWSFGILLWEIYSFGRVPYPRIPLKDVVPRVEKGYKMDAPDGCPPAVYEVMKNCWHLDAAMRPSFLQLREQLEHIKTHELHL

Compound | number of time points (ALK) | number of time points (ARAF) | number of time points (AURKA) | number of time points (AURKB) | number of time points (AURKC) | number of time points (BLK) | number of time points (BMX) | number of time points (BRAF) | number of time points (BRAF_V600E) | number of time points (BTK) | number of time points (CAMK2A) | number of time points (CAMK2G) | number of time points (CDK10) | number of time points (CDK2) | number of time points (CDK3) | number of time points (CDK5) | number of time points (CDK6) | number of time points (CHEK2) | number of time points (CSF1R) | number of time points (CSK)
Cc1cnc(Nc2ccc(F)cc2Cl)nc1-c1c[nH]c(C(=O)N[C@H](CO)c2cccc(Cl)c2)c1 (10 µM) | 0 | 0 | 0 | 0 | 0 | 0 | 0 | 0 | 0 | 0 | 0 | 0 | 0 | 0 | 0 | 0 | 0 | 0 | 0 | 0
O=[N+]([O-])c1ccc(-c2nc(-c3ccc(F)cc3)c(-c3ccncc3)[nH]2)cc1 (10 µM) | 0 | 0 | 0 | 0 | 0 | 0 | 0 | 0 | 0 | 0 | 0 | 0 | 0 | 0 | 0 | 0 | 3 | 0 | 0 | 0
CN1C(=O)[C@@H](NC(=O)c2cc(Cc3ccccc3)on2)COc2ccccc21 (10 µM) | 0 | 0 | 0 | 0 | 0 | 0 | 0 | 0 | 0 | 0 | 0 | 0 | 0 | 0 | 0 | 0 | 0 | 0 | 0 | 0
Nc1nc(Nc2ccc3c(c2)CC[C@@H](N2CCCC2)CC3)nn1-c1cc2c(nn1)-c1ccccc1CCC2 [Bemcentinib] (2.5 µM) | 0 | 0 | 0 | 0 | 0 | 0 | 0 | 0 | 0 | 0 | 0 | 0 | 0 | 0 | 0 | 0 | 0 | 0 | 0 | 0
Cc1cncc2cccc(S(=O)(=O)N3CCCNC[C@@H]3C)c12 [H-1152 (dihydrochloride)] (10 µM) | 0 | 0 | 0 | 0 | 0 | 0 | 0 | 0 | 0 | 0 | 0 | 0 | 0 | 0 | 0 | 0 | 0 | 0 | 0 | 0
CNCc1ccccc1Sc1cccc2ccccc12 [IFN alpha-IFNAR-IN-1 (hydrochloride)] (10 µM) | 2 | 0 | 2 | 2 | 0 | 0 | 4 | 1 | 2 | 0 | 0 | 0 | 0 | 0 | 0 | 0 | 0 | 0 | 0 | 0
Fc1ccc(Cl)cc1-c1nc(Nc2ccncc2)c2nccnc2n1 (10 µM) | 0 | 0 | 0 | 0 | 0 | 0 | 0 | 0 | 0 | 0 | 0 | 0 | 0 | 0 | 0 | 0 | 0 | 0 | 0 | 0
CCNC(=O)Nc1ccc(-c2nc3c(c(N4CCOC[C@@H]4C)n2)CCN(C2COC2)C3)cc1 (2.5 µM) | 0 | 0 | 0 | 0 | 0 | 0 | 1 | 0 | 4 | 0 | 0 | 0 | 0 | 0 | 0 | 0 | 0 | 0 | 0 | 0
C=CC(=O)N1CCC(c2ccc(C(N)=O)c(-c3ccc(Oc4ccccc4)cc3)n2)CC1 [Orelabrutinib] (2.5 µM) | 0 | 0 | 0 | 0 | 0 | 0 | 0 | 0 | 0 | 0 | 0 | 0 | 0 | 0 | 0 | 0 | 0 | 0 | 0 | 0
O=C(C#Cc1ccccc1)c1cccc([N+](=O)[O-])c1 (10 µM) | 0 | 0 | 0 | 0 | 0 | 0 | 0 | 0 | 0 | 0 | 0 | 0 | 0 | 0 | 0 | 0 | 0 | 0 | 0 | 0
CCC(F)(F)c1cc(N2CCC(S(C)(=O)=O)CC2)nc2sc(C(N)=O)c(N)c12 (10 µM) | 0 | 0 | 0 | 0 | 0 | 0 | 0 | 0 | 0 | 0 | 0 | 0 | 0 | 0 | 0 | 0 | 0 | 0 | 0 | 0
CC(C)n1cnc2c(Nc3cccc(Cl)c3)nc(N[C@H]3CCCC[C@@H]3N)nc21 (2.5 µM) | 0 | 0 | 0 | 0 | 0 | 0 | 0 | 0 | 0 | 0 | 0 | 0 | 0 | 0 | 0 | 0 | 0 | 0 | 0 | 0
CN(C)c1ccc(/C=C2\C(=O)Nc3ccccc32)c2ccccc12 (10 µM) | 0 | 0 | 0 | 0 | 0 | 0 | 0 | 0 | 0 | 0 | 0 | 0 | 0 | 0 | 0 | 0 | 0 | 0 | 2 | 0
CC(C1CC1)n1cnc2c(NCc3cccc(C(F)(F)F)c3)nc(NCCN(C)C)nc21 (stereo not given) (10 µM) | 0 | 0 | 0 | 0 | 0 | 0 | 0 | 0 | 0 | 0 | 0 | 0 | 0 | 0 | 0 | 0 | 0 | 0 | 0 | 0
COc1c(O)cc(O)c2c(=O)cc(-c3ccccc3)oc12 [Wogonin] (10 µM) | 0 | 0 | 0 | 0 | 0 | 0 | 0 | 0 | 0 | 0 | 0 | 0 | 0 | 0 | 0 | 0 | 0 | 0 | 0 | 0
N#CC(=C(/N)Sc1ccccc1N)/C(C#N)=C(\N)Sc1ccccc1N (10 µM) | 0 | 0 | 0 | 0 | 0 | 0 | 0 | 0 | 0 | 0 | 0 | 0 | 0 | 0 | 0 | 0 | 0 | 0 | 0 | 0
C=CC(=O)Nc1cc(Nc2nccc(-c3cn(C)c4ccccc34)n2)c(OCC(F)(F)F)nc1N(C)CCNC [AST5902  (trimesylate)] (2.5 µM) | 0 | 0 | 0 | 3 | 0 | 3 | 0 | 0 | 1 | 0 | 0 | 0 | 0 | 0 | 0 | 0 | 0 | 0 | 0 | 0
CN1CCN(Cc2ccc(-c3cnc4[nH]cc(-c5ccc6[nH]ccc6c5)c4c3)cc2)CC1 (2.5 µM) | 0 | 0 | 0 | 0 | 0 | 0 | 0 | 0 | 1 | 0 | 0 | 0 | 0 | 0 | 0 | 0 | 0 | 0 | 0 | 0
Nc1ccc(-c2nc3ccc(-c4nc5ccc(N)cc5[nH]4)cc3[nH]2)cc1 (10 µM) | 0 | 0 | 0 | 0 | 0 | 0 | 0 | 0 | 0 | 0 | 0 | 0 | 0 | 0 | 0 | 0 | 0 | 0 | 0 | 0
CC/C(=C(\c1ccccc1)c1ccc(OCCNC)cc1)c1ccccc1 [N-Desmethyltamoxifen (hydrochloride)] (2.5 µM) | 0 | 0 | 0 | 0 | 0 | 0 | 0 | 0 | 0 | 0 | 0 | 0 | 0 | 0 | 0 | 0 | 0 | 0 | 0 | 0
CN(C)CCOc1cc(-c2cn[nH]c2)ccc1NC(=O)C1COc2ccccc2O1 (stereo not given) (10 µM) | 0 | 0 | 0 | 0 | 0 | 0 | 0 | 0 | 0 | 0 | 0 | 0 | 0 | 0 | 0 | 0 | 0 | 0 | 0 | 0
CS(=O)(=O)c1ccc([C@@H](CC2CCCC2)C(=O)Nc2nccs2)cc1 (10 µM) | 0 | 0 | 0 | 0 | 0 | 0 | 0 | 0 | 0 | 0 | 0 | 0 | 0 | 0 | 0 | 0 | 0 | 0 | 0 | 0
O=C(NC[C@H](O)CO)c1ccncc1Nc1ccc(I)cc1F [Pimasertib] (10 µM) | 1 | 4 | 1 | 0 | 0 | 0 | 1 | 0 | 3 | 0 | 0 | 1 | 0 | 0 | 0 | 0 | 0 | 2 | 0 | 0

Full records, quoted from the list. Order of values: number of time points (ALK) | number of time points (ARAF) | number of time points (AURKA) | number of time points (AURKB) | number of time points (AURKC) | number of time points (BLK) | number of time points (BMX) | number of time points (BRAF) | number of time points (BRAF_V600E) | number of time points (BTK) | number of time points (CAMK2A) | number of time points (CAMK2G) | number of time points (CDK10) | number of time points (CDK2) | number of time points (CDK3) | number of time points (CDK5) | number of time points (CDK6) | number of time points (CHEK2) | number of time points (CSF1R) | number of time points (CSK)
CNCc1ccccc1Sc1cccc2ccccc12 [IFN alpha-IFNAR-IN-1 (hydrochloride)] (10 µM) is listed with 2 | 0 | 2 | 2 | 0 | 0 | 4 | 1 | 2 | 0 | 0 | 0 | 0 | 0 | 0 | 0 | 0 | 0 | 0 | 0
Cc1cnc(Nc2ccc(F)cc2Cl)nc1-c1c[nH]c(C(=O)N[C@H](CO)c2cccc(Cl)c2)c1 (10 µM) is listed with 0 | 0 | 0 | 0 | 0 | 0 | 0 | 0 | 0 | 0 | 0 | 0 | 0 | 0 | 0 | 0 | 0 | 0 | 0 | 0

Source: the supplement of paper PMC12823440, “Inhibitors supercharge kinase turnover through native proteolytic circuits” (Nature, 2025)
